Assay results: patent publication US20250345370A1, “MICROBIAL LIBERATION OF N-METHYLSEROTONIN FROM ORANGE FIBER” (Washington University, priority 2022, published 2025)
This continues a long series; more values of the same kind are listed elsewhere.

Test system: colon gene expression
Test: RNA-Seq of colonic tissue of germ-free mice treated with 50 mg/kg/d N-methylserotonin
Assay type: in vivo, germ-free C57BL/6J mice

SMILES: CNCCc1c[nH]c2ccc(O)cc12 [N-methylserotonin]
- log2 fold-change (colon, gene Wdr91): 0.64
- log2 fold-change (colon, gene Wfdc2): −0.85
- log2 fold-change (colon, gene Wfdc15b): 0.01
- log2 fold-change (colon, gene Wiz): 0.55
- log2 fold-change (colon, gene Xpr1): −0.33
- log2 fold-change (colon, gene Zbtb11): −0.33
- log2 fold-change (colon, gene Zfand5): −0.34
- log2 fold-change (colon, gene Zfp185): 2.32
- log2 fold-change (colon, gene Zfp503): 0.65
- log2 fold-change (colon, gene Zfp512b): 0.42
- log2 fold-change (colon, gene Zfp971): −0.46
- log2 fold-change (gene Abtb2 (Entrez 99382), downregulated genes in colon): −0.47
- log2 fold-change (gene Anln (Entrez 68743), downregulated genes in colon): −0.33
- log2 fold-change (gene Aoc1 (Entrez 76507), downregulated genes in colon): −0.40
- log2 fold-change (gene Apaf1 (Entrez 11783), downregulated genes in colon): −0.32
- log2 fold-change (gene Arrdc4 (Entrez 66412), downregulated genes in colon): −0.37
- log2 fold-change (gene Atp5h (Entrez 71679), downregulated genes in colon): −0.27
- log2 fold-change (gene BC055324 (Entrez 381306), downregulated genes in colon): −0.59
- log2 fold-change (gene Bcl6 (Entrez 12053), downregulated genes in colon): −0.41
- log2 fold-change (gene Bmp2k (Entrez 140780), downregulated genes in colon): −0.28
- log2 fold-change (gene Bzw1 (Entrez 66882), downregulated genes in colon): −0.24
- log2 fold-change (gene Calm1 (Entrez 12313), downregulated genes in colon): −0.21
- log2 fold-change (gene Calml4 (Entrez 75600), downregulated genes in colon): −0.27
- log2 fold-change (gene Ccnb1 (Entrez 268697), downregulated genes in colon): −0.38
- log2 fold-change (gene Chchd3 (Entrez 66075), downregulated genes in colon): −0.26
- log2 fold-change (gene Chml (Entrez 12663), downregulated genes in colon): −0.27
- log2 fold-change (gene Cib1 (Entrez 23991), downregulated genes in colon): −0.26
- log2 fold-change (gene Cmas (Entrez 12764), downregulated genes in colon): −0.27
- log2 fold-change (gene Cse1l (Entrez 110750), downregulated genes in colon): −0.25
- log2 fold-change (gene Cstf2 (Entrez 108062), downregulated genes in colon): −0.26
- log2 fold-change (gene Dlat (Entrez 235339), downregulated genes in colon): −0.24
- log2 fold-change (gene Fer1l6 (Entrez 631797), downregulated genes in colon): −0.31
- log2 fold-change (gene Galnt7 (Entrez 108150), downregulated genes in colon): −0.25
- log2 fold-change (gene Gfm2 (Entrez 320806), downregulated genes in colon): −0.26
- log2 fold-change (gene Glycam1 (Entrez 14663), downregulated genes in colon): −0.11
- log2 fold-change (gene Gm26448 (Entrez 115487256), downregulated genes in colon): −0.53
- log2 fold-change (gene Gna13 (Entrez 14674), downregulated genes in colon): −0.25
- log2 fold-change (gene Gne (Entrez 50798), downregulated genes in colon): −0.26
- log2 fold-change (gene Gsdmcl2 (Entrez 665769), downregulated genes in colon): −0.45
- log2 fold-change (gene H1f1 (Entrez 80838), downregulated genes in colon): −0.38
- log2 fold-change (gene H3c3 (Entrez 319148), downregulated genes in colon): −0.52
- log2 fold-change (gene H3f3a (Entrez 15078), downregulated genes in colon): −0.26
- log2 fold-change (gene Igkv4-63 (Entrez 628571), downregulated genes in colon): −0.04
- log2 fold-change (gene Itfg1 (Entrez 71927), downregulated genes in colon): −0.29
- log2 fold-change (gene Ivns1abp (Entrez 117198), downregulated genes in colon): −0.26
- log2 fold-change (gene Jpt1 (Entrez 15374), downregulated genes in colon): −0.32
- log2 fold-change (gene Lipo3 (Entrez 381236), downregulated genes in colon): −0.42
- log2 fold-change (gene Lrrc66 (Entrez 231296), downregulated genes in colon): −0.35
- log2 fold-change (gene Mctp2 (Entrez 244049), downregulated genes in colon): −0.31
- log2 fold-change (gene Mki67 (Entrez 17345), downregulated genes in colon): −0.34
- log2 fold-change (gene Mkks (Entrez 59030), downregulated genes in colon): −0.45
- log2 fold-change (gene Mkrn1 (Entrez 54484), downregulated genes in colon): −0.24
- log2 fold-change (gene Mrpl13 (Entrez 68537), downregulated genes in colon): −0.32
- log2 fold-change (gene Ncaph (Entrez 215387), downregulated genes in colon): −0.35
- log2 fold-change (gene Ndfip2 (Entrez 76273), downregulated genes in colon): −0.26
- log2 fold-change (gene Ostf1 (Entrez 20409), downregulated genes in colon): −0.26
- log2 fold-change (gene Oxct1 (Entrez 67041), downregulated genes in colon): −0.25
- log2 fold-change (gene Papolg (Entrez 216578), downregulated genes in colon): −0.38
- log2 fold-change (gene Pclaf (Entrez 68026), downregulated genes in colon): −0.38
- log2 fold-change (gene Pik3c3 (Entrez 225326), downregulated genes in colon): −0.32
- log2 fold-change (gene Plin2 (Entrez 11520), downregulated genes in colon): −0.30
- log2 fold-change (gene Ppip5k2 (Entrez 227399), downregulated genes in colon): −0.23
- log2 fold-change (gene Prps2 (Entrez 110639), downregulated genes in colon): −0.31
- log2 fold-change (gene Rasef (Entrez 242505), downregulated genes in colon): −0.30
- log2 fold-change (gene Rnf141 (Entrez 67150), downregulated genes in colon): −0.24
- log2 fold-change (gene Scml4 (Entrez 268297), downregulated genes in colon): −0.30
- log2 fold-change (gene Shcbp1 (Entrez 20419), downregulated genes in colon): −0.45
- log2 fold-change (gene Slc6a4 (Entrez 15567), downregulated genes in colon): −0.47
- log2 fold-change (gene Smim31 (Entrez 407795), downregulated genes in colon): −0.35
- log2 fold-change (gene St3gal4 (Entrez 20443), downregulated genes in colon): −0.34
- log2 fold-change (gene Stk17b (Entrez 98267), downregulated genes in colon): −0.43
- log2 fold-change (gene Tm9sf2 (Entrez 68059), downregulated genes in colon): −0.20
- log2 fold-change (gene Tmed7 (Entrez 66676), downregulated genes in colon): −0.24
- log2 fold-change (gene Tmprss4 (Entrez 214523), downregulated genes in colon): −0.26
- log2 fold-change (gene Tnfaip3 (Entrez 21929), downregulated genes in colon): −0.38
- log2 fold-change (gene Txndc16 (Entrez 70561), downregulated genes in colon): −0.28
- log2 fold-change (gene Uba7 (Entrez 74153), downregulated genes in colon): −0.31
- log2 fold-change (gene Upp1 (Entrez 22271), downregulated genes in colon): −0.52
- log2 fold-change (gene Yes1 (Entrez 22612), downregulated genes in colon): −0.26
- log2 fold-change (gene Zg16 (Entrez 69036), downregulated genes in colon): −0.30
- log2 fold-change (gene Zwilch (Entrez 68014), downregulated genes in colon): −0.52
